# Reference: the supplement of paper PMC12595434, “Development of retinoid nuclear receptor pathway antagonists through targeting aldehyde dehydrogenase 1A3” (iScience, 2025)
# By UniProt entry, the sequences of proteins in these tests, tags left out. Where a name states a change or a piece, a line headed by the entry shows the natural chain unless it says otherwise.
# UniProt P13051, whole entry: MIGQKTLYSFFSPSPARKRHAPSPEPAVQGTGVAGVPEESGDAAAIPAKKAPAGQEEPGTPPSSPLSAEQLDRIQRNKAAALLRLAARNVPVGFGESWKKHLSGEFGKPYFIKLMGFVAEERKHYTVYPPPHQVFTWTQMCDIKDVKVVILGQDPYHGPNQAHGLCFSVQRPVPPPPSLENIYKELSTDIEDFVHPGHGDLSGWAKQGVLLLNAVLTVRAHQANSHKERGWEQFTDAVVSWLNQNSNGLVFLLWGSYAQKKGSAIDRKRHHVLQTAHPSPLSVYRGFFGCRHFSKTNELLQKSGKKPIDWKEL
# UniProt P11586, whole entry: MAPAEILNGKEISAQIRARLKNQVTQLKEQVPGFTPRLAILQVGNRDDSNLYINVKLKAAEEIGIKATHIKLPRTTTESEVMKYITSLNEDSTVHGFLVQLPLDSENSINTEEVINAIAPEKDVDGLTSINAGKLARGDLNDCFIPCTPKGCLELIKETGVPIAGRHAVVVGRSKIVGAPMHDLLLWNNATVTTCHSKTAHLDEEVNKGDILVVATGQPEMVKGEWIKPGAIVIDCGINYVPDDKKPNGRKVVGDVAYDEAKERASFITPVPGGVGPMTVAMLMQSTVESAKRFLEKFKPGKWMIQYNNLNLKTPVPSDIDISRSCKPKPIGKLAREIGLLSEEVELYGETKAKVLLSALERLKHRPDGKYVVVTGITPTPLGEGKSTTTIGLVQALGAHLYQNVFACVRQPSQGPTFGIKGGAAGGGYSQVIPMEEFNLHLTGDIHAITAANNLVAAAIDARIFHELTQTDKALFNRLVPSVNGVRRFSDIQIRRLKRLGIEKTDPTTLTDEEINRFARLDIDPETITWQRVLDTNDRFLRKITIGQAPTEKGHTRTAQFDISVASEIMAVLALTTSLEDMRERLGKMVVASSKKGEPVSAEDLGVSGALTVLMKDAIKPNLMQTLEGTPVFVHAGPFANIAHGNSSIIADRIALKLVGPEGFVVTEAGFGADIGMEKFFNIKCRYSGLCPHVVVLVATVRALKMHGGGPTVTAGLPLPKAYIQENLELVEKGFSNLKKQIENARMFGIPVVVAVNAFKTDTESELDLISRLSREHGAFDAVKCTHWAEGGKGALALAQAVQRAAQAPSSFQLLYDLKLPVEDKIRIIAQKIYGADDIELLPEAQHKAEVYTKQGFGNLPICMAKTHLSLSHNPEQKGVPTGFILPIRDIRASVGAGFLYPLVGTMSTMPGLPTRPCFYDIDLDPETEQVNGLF
# UniProt P10619: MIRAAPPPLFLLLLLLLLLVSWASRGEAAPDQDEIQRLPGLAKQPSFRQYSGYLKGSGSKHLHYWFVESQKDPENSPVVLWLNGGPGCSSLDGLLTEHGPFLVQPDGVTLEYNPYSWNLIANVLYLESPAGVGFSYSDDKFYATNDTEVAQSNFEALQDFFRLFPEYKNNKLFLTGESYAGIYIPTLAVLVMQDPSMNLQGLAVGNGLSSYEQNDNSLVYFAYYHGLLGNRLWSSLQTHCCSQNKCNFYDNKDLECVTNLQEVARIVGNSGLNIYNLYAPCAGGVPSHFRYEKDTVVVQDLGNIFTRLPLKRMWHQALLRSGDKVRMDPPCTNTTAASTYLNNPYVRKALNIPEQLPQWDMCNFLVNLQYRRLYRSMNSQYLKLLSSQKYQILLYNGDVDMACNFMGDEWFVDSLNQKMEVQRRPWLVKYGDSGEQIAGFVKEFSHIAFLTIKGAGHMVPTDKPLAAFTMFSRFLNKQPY
# UniProt P18858, whole entry: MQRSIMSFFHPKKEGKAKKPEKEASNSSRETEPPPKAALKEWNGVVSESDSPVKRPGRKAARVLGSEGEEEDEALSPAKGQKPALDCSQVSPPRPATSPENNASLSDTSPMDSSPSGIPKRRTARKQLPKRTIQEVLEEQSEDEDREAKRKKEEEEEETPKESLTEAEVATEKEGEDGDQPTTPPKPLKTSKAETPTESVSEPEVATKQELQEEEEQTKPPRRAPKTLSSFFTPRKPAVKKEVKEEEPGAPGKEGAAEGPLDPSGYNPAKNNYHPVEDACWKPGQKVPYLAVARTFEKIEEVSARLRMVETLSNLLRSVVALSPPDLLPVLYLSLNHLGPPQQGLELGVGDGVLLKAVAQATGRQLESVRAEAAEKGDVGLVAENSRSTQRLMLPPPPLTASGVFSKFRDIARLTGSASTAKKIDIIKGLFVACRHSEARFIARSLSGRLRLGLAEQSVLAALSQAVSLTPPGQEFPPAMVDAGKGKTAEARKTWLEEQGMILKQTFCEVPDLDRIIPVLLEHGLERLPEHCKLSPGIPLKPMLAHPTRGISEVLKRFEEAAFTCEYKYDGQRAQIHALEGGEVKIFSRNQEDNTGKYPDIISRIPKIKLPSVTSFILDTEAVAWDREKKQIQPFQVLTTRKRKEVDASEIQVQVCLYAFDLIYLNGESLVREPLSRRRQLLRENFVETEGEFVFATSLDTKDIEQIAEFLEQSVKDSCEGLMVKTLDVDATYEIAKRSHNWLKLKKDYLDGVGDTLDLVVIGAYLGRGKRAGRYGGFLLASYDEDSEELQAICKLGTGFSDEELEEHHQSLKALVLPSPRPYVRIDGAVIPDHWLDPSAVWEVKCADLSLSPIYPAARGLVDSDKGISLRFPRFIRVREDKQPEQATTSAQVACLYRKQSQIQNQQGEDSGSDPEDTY
# UniProt P07996: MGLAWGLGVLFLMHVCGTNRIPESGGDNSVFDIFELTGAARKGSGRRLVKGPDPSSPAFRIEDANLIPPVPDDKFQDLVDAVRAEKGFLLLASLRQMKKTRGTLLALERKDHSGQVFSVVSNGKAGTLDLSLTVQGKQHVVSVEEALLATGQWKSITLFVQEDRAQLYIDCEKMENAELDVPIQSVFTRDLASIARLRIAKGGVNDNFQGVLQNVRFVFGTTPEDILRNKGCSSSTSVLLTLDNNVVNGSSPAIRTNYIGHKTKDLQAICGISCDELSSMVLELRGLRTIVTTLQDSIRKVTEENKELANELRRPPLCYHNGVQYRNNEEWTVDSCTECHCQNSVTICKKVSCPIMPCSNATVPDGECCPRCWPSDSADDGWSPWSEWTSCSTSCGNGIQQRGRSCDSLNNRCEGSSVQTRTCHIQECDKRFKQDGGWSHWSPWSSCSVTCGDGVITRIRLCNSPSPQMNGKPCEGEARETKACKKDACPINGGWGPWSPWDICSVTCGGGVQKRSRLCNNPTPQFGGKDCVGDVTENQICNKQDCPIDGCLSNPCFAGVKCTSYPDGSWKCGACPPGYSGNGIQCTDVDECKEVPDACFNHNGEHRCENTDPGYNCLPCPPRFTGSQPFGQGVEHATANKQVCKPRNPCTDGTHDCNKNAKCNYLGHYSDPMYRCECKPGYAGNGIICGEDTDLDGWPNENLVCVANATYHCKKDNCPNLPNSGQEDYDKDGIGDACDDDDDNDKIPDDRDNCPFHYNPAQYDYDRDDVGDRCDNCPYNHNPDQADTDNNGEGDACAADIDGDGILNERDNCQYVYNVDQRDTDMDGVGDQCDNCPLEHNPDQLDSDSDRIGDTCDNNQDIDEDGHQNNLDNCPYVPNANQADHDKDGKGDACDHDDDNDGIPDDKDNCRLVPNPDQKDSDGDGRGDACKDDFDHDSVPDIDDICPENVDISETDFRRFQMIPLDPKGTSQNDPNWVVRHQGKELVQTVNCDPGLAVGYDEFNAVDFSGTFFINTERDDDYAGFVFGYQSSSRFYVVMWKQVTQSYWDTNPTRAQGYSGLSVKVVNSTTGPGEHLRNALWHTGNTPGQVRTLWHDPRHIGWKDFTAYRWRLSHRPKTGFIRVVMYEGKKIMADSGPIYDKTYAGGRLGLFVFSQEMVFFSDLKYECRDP
# UniProt P20020: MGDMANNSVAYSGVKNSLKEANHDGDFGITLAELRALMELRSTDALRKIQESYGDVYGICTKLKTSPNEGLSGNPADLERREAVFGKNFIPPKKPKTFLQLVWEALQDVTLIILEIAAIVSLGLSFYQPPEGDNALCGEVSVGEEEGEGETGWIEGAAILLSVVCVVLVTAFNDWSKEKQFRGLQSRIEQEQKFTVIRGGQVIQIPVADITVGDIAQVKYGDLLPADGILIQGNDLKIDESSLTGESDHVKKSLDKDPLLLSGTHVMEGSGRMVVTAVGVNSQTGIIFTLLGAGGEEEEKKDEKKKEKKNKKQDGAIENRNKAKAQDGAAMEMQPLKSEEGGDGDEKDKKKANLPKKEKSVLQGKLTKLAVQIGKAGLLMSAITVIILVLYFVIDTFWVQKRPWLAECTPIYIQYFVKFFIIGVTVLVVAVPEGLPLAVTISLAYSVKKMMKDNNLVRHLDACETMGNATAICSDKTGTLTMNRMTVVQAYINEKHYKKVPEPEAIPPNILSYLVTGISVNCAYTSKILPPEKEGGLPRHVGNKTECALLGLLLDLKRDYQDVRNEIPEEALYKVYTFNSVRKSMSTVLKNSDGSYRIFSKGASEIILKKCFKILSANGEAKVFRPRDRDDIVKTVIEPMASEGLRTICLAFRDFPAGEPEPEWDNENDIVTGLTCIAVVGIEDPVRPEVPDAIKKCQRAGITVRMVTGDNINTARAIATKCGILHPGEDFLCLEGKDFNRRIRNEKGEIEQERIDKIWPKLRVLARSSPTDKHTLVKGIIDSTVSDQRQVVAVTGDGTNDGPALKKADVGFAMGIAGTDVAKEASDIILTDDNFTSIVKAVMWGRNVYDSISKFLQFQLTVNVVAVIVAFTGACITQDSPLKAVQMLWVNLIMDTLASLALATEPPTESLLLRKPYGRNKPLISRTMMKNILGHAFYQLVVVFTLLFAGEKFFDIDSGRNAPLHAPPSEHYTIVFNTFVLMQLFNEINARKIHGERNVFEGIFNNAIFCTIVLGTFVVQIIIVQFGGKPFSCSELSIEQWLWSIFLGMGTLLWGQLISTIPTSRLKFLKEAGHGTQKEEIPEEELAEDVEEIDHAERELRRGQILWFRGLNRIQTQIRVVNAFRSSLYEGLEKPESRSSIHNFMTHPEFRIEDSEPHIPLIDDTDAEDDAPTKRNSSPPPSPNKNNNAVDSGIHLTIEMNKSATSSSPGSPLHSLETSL
# UniProt P15882: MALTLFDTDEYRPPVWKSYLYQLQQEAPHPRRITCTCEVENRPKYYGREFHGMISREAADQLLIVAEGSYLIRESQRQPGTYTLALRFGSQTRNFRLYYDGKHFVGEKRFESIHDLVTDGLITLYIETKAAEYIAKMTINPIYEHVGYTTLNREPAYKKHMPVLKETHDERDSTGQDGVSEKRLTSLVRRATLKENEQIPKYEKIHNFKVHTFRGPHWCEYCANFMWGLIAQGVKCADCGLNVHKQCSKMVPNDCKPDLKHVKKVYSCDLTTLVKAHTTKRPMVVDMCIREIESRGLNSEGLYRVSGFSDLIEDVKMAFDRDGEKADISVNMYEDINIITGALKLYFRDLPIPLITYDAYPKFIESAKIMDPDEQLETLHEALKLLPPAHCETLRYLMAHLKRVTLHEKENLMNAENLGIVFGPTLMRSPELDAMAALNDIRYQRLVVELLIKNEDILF
# UniProt P16615: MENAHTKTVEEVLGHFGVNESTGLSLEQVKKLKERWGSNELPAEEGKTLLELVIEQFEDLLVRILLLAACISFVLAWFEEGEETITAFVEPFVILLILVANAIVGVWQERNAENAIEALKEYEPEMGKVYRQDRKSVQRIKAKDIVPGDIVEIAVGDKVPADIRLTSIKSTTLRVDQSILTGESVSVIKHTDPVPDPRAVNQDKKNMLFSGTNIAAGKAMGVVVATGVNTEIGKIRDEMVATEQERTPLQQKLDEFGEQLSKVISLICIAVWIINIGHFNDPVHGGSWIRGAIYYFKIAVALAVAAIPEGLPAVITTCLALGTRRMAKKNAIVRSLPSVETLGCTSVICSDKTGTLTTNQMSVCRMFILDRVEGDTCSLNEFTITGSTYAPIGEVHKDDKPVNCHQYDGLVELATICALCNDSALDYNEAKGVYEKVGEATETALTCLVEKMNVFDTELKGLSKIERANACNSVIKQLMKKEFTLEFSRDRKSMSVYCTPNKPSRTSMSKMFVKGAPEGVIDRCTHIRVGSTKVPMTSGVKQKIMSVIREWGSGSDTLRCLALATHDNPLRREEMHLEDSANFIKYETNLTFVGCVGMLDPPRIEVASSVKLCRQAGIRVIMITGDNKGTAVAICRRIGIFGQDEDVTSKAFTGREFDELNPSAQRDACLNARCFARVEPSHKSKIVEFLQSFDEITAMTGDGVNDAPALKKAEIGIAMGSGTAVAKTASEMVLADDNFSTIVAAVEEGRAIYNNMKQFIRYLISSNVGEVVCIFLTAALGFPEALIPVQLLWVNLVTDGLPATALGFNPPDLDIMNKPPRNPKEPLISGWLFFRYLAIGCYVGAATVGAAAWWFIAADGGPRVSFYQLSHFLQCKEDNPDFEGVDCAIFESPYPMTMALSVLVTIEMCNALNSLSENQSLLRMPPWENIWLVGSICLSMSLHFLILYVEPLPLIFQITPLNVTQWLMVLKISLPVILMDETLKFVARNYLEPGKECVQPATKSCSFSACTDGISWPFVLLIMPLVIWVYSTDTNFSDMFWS
# This is one part of the list. The data scatter; read single values as rough.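 Tm was set to 64 °C where no melting was found, and many curves are irregular.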
# Compound: CCc1cnccc1C(=O)Nc1cc2c(cc1F)NC(=O)CC2
# Experiment: melting temperature shift (DMSO Tm minus MBE1-treated Tm) in cellular thermal proteome profiling; higher = less thermal stabilization by MBE1 (negative = stabilized by MBE1)
# Details: A375
Target,melting temperature shift (MBE1 concentration: 100 nM) [°C],melting temperature shift (MBE1 concentration: 1 uM) [°C]
ETFA (UniProt P13804),-1.11,0.372
GYS1 (UniProt P13807),-0.538,1.01
CCNA2 (UniProt P20248),-2.6,0.366
CPM (UniProt P14384),8.19,6.6
PKM (UniProt P14618),-1.06,-0.63
ACADS (UniProt P16219),0.27,-1.36
NAGA (UniProt P17050),-1.37,-2.52
FOSL1 (UniProt P15407),0.0733,0.446
UNG (UniProt P13051),0.659,-0.128
HEXB (UniProt P07686),-4.1,-0.0295
CBR1 (UniProt P16152),-0.778,-0.295
PGAM1 (UniProt P18669),-0.935,-0.577
P0DI82 (UniProt P0DI81),1.16,0.14
MTHFD1 (UniProt P11586),-0.582,0.348
CTSA (UniProt P10619),-1.07,-1.08
LIG1 (UniProt P18858),-0.325,-0.583
IFNGR1 (UniProt P15260),-0.253,-0.253
UniProt P12694,0.134,0.592
B4GALT1 (UniProt P15291),-0.382,0.826
RAB4A (UniProt P20338),-0.261,0.165
EEF2 (UniProt P13639),-0.824,-0.904
GSPT1 (UniProt P15170),-0.342,-0.0134
UniProt P20336,-1.54,-1.26
CAPN2 (UniProt P17655),-0.916,-0.684
THBS1 (UniProt P07996),-0.997,0.324

Target,melting temperature shift (MBE1 concentration: 100 nM) [°C],melting temperature shift (MBE1 concentration: 1 uM) [°C]
ANXA5 (UniProt P08758),0.36,-0.165
ATP2B1 (UniProt P20020),-1.13,0.691
EPRS (UniProt P07814),-0.616,-0.0423
P0DMU7 (UniProt P0DMU8),-1.13,-3.07
TPT1 (UniProt P13693),-0.651,-0.905
PRKCSH (UniProt P14314),-6.39,-5.84
SNRPA1 (UniProt P09661),-0.852,0.782
UniProt P17066,-2.41,-1.21
ZNF24 (UniProt P17028),0.483,-1.18
ACAA1 (UniProt P09110),-0.879,1.01
ERCC3 (UniProt P19447),-0.794,-0.666
PLCG1 (UniProt P19174),-0.0894,0.179
ITGA2 (UniProt P17301),-0.913,-1.24
UniProt P15882,-0.434,-0.177
MTHFD2 (UniProt P13995),-0.436,0.999
TOP1 (UniProt P11387),-0.173,-0.0641
ANXA2 (UniProt P07355),-0.302,-0.0402
FH (UniProt P07954),-0.114,0.0805
ACADM (UniProt P11310),-0.788,-0.416
CDK4 (UniProt P11802),-2.08,0.0376
LTA4H (UniProt P09960),-1.05,-0.529
ATP2A2 (UniProt P16615),-0.32,0.379
UniProt P18433,0.543,0.324
UniProt P09104,-2.44,-3.13

# Reprinted from the results shown (3 entries):
Target,melting temperature shift (MBE1 concentration: 100 nM) [°C],melting temperature shift (MBE1 concentration: 1 uM) [°C]
ACADM (UniProt P11310),-0.788,-0.416
CDK4 (UniProt P11802),-2.08,0.0376
LTA4H (UniProt P09960),-1.05,-0.529
